Assay results published in US10858342B2, “Bicyclic imidazole derivatives useful for the treatment of renal diseases, cardiovascular diseases and fibrotic diseases” (Boehringer Ingelheim International GmbH, priority 2016, dated 2020).
At least one compound was matched to its structure with a doubt left.

Test system: aldosterone synthase (CYP11B2)
Experiment: Inhibition of aldosterone synthase (cynomolgus adrenal mitochondria, aldosterone by mass spectrometry)
Assay type: biochemical, cynomolgus monkey
Conditions: selectivity for aldosterone synthase inhibition over cortisol synthase (CYP11B1) inhibition, fold
Description: The aldosterone synthase and cortisol synthase inhibition assays employ cynomolgus adrenal gland mitochondria as the source of aldosterone synthase (CYP11B2) and cortisol synthase (CYP11B1). […] One unit of CYP11B2 and CYP11B1 activity in these preparations is defined as the amount of enzyme that generates 1 pmol of product in one hour under the conditions described.
The compounds of the invention may be evaluated for aldosterone synthase inhibition by the following assay:
Assays are performed in 96-well format in a final volume of 60 microL/well, containing 100 mM potassium phosphate, pH 7.4, 1% (v/v) DMSO, and additionally, 2 μM of corticosterone and 50 units of CYP11B2 activity. Reactions are started by the addition of NADPH to 1 mM and allowed to proceed for 90 minutes at 37° C. Reactions are terminated by the addition of 60 μL of MeCN containing an internal standard for mass spectrometry. One hundred microliters are then transferred to a glass filter plate and centrifuged at 570×g for 5 minutes and the filtrate is collected. Reaction product aldosterone is quantified by mass spectrometry. To determine the assay blank value (0% activity), NADPH is omitted from some reactions.
Dose dependent inhibition is quantified by the inclusion of compound at various concentrations. Maximum activity (100%) is defined by reactions containing NADPH, but without compound.

First: N#Cc1ccc(-n2cnc3c2C(=O)CC2(CCOCC2)C3)cc1Cl [C-AAQ, 3-(3-Chloro-4-cyano-phenyl)-6,6-3-o-tetrahydropyran-3,5,6,7-tetrahydro-benzoimidazol-4-one]
Second: N#Cc1ccc(-n2cnc3c2C(=O)CC(CO)C3)cc1Cl (centres unmarked) [C-AED, 2-Chloro-4-(5-hydroxymethyl-7-oxo-4,5,6,7-tetrahydro-benzoimidazol-1-yl)-benzonitrile]
The Selectivity of the first is lower: 66 for the first, 470 for the second.

First: CCOC(=O)C1CC(=O)c2c(ncn2-c2ccc(C#N)c(Cl)c2)C1 (centres unmarked) [C-AAY, 1-(3-Chloro-4-cyano-phenyl)-7-oxo-4,5,6,7-tetrahydro-1H-benzoimidazole-5-carboxylic acid ethyl ester]
Second: CN(C)C(=O)[C@H]1CC(=O)c2c(ncn2-c2ccc(C#N)c(Cl)c2)C1 [C-AEE, (R)-1-(3-Chloro-4-cyano-phenyl)-7-oxo-4,5,6,7-tetrahydro-1H-benzoimidazole-5-carboxylic acid dimethylamide]
The Selectivity of the first is higher: 690 for the first, 150 for the second.

CC1(C)CC(=O)c2c(ncn2C2CCCc3ccccc32)C1 (centres unmarked) [C-ACS, 6,6-Dimethyl-3-(1,2,3,4-tetrahydronaphthalen-1-yl)-3,5,6,7-tetrahydro-benzoimidazol-4-one] gave a Selectivity of 280.
